These are yes or no findings as the source states them, for the method shown. In cells and extracts the contact can be indirect. Here binding means that the protein was enriched with, or labelled near, the bait; the list need not be complete.
Target: GluN2D (NMDA receptor subunit, encoded by Grin2d), expressed as Grin2d-3XFlag (UniProt Q03391)
Experiment: affinity purification with mass spectrometry; RIPA lysate of cultured mouse brain SMCs transduced with Grin2d-3XFlag lentivirus; anti-GluN2D or IgG control antibodies on Protein G Magnetic Beads; eluates analysed by mass spectrometry

Amino acid sequences for entries named in this document (tags omitted). A change or cut given only in a name is not applied to a line headed by its entry. Residues count along the entry.
UniProt Q03391, residues 28-1323: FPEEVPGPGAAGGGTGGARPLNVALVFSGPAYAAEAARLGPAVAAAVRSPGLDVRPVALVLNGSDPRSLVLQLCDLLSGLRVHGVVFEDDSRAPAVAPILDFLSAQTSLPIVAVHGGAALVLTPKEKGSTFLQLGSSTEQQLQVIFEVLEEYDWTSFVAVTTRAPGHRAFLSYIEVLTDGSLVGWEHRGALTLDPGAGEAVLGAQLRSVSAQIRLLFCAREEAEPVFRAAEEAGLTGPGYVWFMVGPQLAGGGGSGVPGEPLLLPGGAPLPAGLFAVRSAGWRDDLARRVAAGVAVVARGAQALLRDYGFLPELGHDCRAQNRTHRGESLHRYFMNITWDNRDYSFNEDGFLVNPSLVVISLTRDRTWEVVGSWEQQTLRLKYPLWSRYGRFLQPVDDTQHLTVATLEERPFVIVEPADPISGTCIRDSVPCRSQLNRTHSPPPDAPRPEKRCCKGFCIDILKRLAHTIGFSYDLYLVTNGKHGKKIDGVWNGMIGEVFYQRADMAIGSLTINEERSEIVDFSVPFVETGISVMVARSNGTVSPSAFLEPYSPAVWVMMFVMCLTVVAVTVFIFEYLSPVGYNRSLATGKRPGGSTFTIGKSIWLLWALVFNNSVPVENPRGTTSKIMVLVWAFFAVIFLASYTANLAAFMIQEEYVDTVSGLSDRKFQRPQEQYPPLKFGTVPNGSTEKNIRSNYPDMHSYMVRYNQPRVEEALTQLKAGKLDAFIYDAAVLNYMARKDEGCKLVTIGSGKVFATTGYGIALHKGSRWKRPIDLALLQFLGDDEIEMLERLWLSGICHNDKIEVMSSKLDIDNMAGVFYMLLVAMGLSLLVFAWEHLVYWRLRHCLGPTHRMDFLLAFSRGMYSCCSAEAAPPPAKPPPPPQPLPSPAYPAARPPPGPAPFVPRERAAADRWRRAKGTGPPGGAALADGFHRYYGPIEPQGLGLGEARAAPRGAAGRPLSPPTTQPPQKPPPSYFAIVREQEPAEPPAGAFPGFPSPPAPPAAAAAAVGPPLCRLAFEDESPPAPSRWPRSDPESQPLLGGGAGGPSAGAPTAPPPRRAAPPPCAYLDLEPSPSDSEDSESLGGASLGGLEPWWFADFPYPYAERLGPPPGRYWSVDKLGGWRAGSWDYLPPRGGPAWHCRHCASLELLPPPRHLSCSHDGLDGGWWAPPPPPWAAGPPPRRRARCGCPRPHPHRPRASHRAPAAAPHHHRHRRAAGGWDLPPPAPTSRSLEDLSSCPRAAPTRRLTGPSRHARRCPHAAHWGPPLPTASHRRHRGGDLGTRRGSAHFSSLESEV
UniProt Q8VCQ8: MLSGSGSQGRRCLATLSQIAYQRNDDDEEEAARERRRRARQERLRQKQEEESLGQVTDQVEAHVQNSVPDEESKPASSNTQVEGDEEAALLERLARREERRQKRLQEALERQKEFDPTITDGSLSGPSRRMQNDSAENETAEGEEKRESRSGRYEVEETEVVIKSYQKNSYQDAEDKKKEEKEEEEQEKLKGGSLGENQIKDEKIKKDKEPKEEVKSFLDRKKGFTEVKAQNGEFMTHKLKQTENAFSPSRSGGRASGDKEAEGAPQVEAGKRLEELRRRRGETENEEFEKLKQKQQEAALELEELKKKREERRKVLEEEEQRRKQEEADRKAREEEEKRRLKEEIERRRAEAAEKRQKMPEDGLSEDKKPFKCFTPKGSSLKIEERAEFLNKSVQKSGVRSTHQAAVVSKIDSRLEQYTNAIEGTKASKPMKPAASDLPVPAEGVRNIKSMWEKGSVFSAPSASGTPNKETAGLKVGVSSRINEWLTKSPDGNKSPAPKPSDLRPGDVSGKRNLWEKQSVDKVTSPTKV

binding: binds
Substance: caldesmon (encoded by Cald1) (from UniProt Q8VCQ8)

Source: PMC13503848
